Reference: publication PMC3792071
Results are given in words; binding and its absence hold for the method and conditions named. In cells and extracts the contact can be indirect.

Biological target: endogenous PP1 of HEK293 cells (isoform not given) (human (endogenous in HEK293))
Experiment: co-IP; HEK293 cells immunoprecipitated with PP1 antibody bound to protein A-sepharose beads; blots with specific antibodies

binding: no binding
B1: LAP2β (protein, UniProt P42167 1-454)
chain: MPEFLEDPSVLTKDKLKSELVANNVTLPAGEQRKDVYVQLYLQHLTARNRPPLPAGTNSKGPPDFSSDEEREPTPVLGSGAAAAGRSRAAVGRKATKKTDKPRQEDKDDLDVTELTNEDLLDQLVKYGVNPGPIVGTTRKLYEKKLLKLREQGTESRSSTPLPTISSSAENTRQNGSNDSDRYSDNEEDSKIELKLEKREPLKGRAKTPVTLKQRRVEHNQSYSQAGITETEWTSGSSKGGPLQALTRESTRGSRRTPRKRVETSEHFRIDGPVISESTPIAETIMASSNESLVVNRVTGNFKHASPILPITEFSDIPRRAPKKPLTRAEVGEKTEERRVERDILKEMFPYEASTPTGISASCRRPIKGAAGRPLELSDFRMEESFSSKYVPKYVPLADVKSEKTKKGRSIPVWIKILLFVVVAVFLFLVYQAMETNQVNPFSNFLHVDPRKSN
